{"source": "patent US10577387B1", "about": "“Platinum (II) complexes containing N-heterocyclic carbene ligand and pincer ligands, synthesis, and their applications in cancer treatment” (priority 2018, dated 2020)", "system": "HeLa cells", "assay": "Confocal fluorescence microscopy co-localization with organelle probes", "assay_type": "cell-based, human", "settings": "1b 5 μM", "procedure": "HeLa cells (2×10^5 cells) were seeded in a one chamber slide (Nalgene; Nunc) with culture medium (2 mL per well) and incubated at 37° C. in a humidified atmosphere of 5% CO2/95% air for 24 h. After treating with 1b (5 μM) for 1 h, ER-tracker™ red (1 μM), Mitotracker® deep red (50 nM) or Lysotracker® deep red (50 nM) were incubated with cells for 10 min, and then the cells were washed with PBS twice. Confocal fluorescence images were captured using a Carl Zeiss LSM510 Meta confocal microscope with the use of 488 and 543 nm/633 nm lasers for the excitation of complex 1b and red/deep red tracker respectively, under a Plan-Apochromat 63×1.40NA oil-immersion objective.", "data": [{"smiles": "CCCCN1C=CN(CCCC)[CH]1[Pt]12[n]3c(c4ccccc4c3=Nc3cccc[n+]31)=Nc1cccc[n+]12", "note": "[Complex 1b]", "values": [{"measurement": "Pearson's correlation coefficient for co-localization with Lysotracker", "value": 0.55}, {"measurement": "Pearson's correlation coefficient for co-localization with Mitotracker", "value": 0.45}]}]}
